Laboratory results published in patent publication US10662187B2, “Bruton's tyrosine kinase inhibitors” (Zibo Biopolar Changsheng Pharmaceutical Co. Ltd., priority 2016, dated 2020).
At least one structure is not confirmed: it was looked up by name or label, or the drawing left a doubt.

Amino acid sequences for entries named in this document (tags omitted). A change or cut given only in a name is not applied to a line headed by its entry.
UniProt Q06187: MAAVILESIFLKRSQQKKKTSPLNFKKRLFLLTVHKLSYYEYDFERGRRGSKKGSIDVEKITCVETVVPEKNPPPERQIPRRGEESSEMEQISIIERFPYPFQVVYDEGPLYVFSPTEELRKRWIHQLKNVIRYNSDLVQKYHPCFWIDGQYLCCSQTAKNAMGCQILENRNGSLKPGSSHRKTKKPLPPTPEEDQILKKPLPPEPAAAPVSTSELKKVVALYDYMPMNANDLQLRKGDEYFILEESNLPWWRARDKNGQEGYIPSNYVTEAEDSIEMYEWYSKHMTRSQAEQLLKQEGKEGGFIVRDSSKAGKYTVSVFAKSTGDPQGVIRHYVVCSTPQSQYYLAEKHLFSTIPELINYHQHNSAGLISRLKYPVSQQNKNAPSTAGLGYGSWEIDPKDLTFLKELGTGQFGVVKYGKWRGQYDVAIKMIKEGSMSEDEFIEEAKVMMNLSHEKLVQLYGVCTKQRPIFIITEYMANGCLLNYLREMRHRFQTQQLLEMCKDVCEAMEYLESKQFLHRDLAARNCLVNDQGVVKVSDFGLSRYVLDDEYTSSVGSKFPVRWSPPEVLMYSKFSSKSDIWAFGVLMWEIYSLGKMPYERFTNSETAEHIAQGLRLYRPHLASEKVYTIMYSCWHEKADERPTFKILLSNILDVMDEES

Molecular target: BTK (Homo sapiens (Human), UniProt Q06187)
Test: Btk occupancy in cellular assays (PCI-33380 labeling, Jeko-1 cells)
Format: cell-based
Conditions: 1.5 h pre-incubation with compound, PCI-33380 5 μM 1 h
Experimental: Btk Occupancy in Cellular Assays
For PCI-33380 labeling of human B cells, 10^6 Jeko-1 cells were pre-incubated with compound for 1.5 h before labeling. Then cells were treated with PCI-33380 at 5 μM for 1 h. Washed, lysed in Ripa buffer containing sample reducing agent, and analyzed by SDS/PAGE and fluorescent gel scanning using a Typhoon scanner 9500 (GE Healthcare) (Ex, 532 nm; Em, 555 nm). The gel was then blotted and total Btk levels detected by standard Western blot with Btk antibody (CST).

SMILES: C=CC(=O)N1CCC[C@@H](n2nc(-c3ccc(Oc4cccc(OC)c4Cl)cc3)c3cncc(OCCC)c32)C1 [Compound 83, (R)-1-(3-(3-(4-(2-chloro-3-methoxyphenoxy)phenyl)-7-propoxy-1H-pyrazolo[4,3-c]pyridin-1-yl)piperidin-1-yl)prop-2-en-1-one]
- concentration sufficient to fully occupy the active site of Btk: 50 nM
